The target in series [1] is T1, PaP3 TerS WT (small terminase, peak 2) (Pseudomonas phage PaP3) (UniProt Q8H9R5).
T1 sequence (looked up): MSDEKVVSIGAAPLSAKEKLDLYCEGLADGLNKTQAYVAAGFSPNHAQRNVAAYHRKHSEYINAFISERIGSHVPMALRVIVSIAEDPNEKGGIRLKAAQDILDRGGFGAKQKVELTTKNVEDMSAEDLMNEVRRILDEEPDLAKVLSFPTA
Nature of the series: EMSA. The conditions noted are these: agarose gel, 0-40 uM TerS, cos bound with significantly higher affinity; EMSA: incubation 37 C 30 min (binding buffer not stated; proteins in GF buffer 20 mM Tris-HCl pH 7.5, 150 mM NaCl, 5 mM bME, 2.5% glycerol); recombinant protein; residues 1-152; protein details: GST removed by PreScission protease; label: 5' Cy3. A general note: In EMSA bound probe runs differently from free probe, usually more slowly.

Series [2] deals with T2, PaP3 TM-TerS K17A,K19A,K33A (Pseudomonas phage PaP3) (UniProt Q8H9R5).
T2 sequence (looked up): T1 sequence (looked up) with K17A, K19A, K33A
Nature of the series: EMSA. The conditions noted are these: agarose gel, 0-40 uM TerS, disrupted more than DM; EMSA: incubation 37 C 30 min (binding buffer not stated; proteins in GF buffer 20 mM Tris-HCl pH 7.5, 150 mM NaCl, 5 mM bME, 2.5% glycerol); recombinant protein; residues 1-152; protein details: GST removed by PreScission protease; label: 5' Cy3 on both strands.

Numbering of substitutions follows the chain as printed. Weaker means in comparison with the reference protein, sequence or condition of that experiment. Where a protein sequence is shown, tags need not be part of it.

Regarding “GCACTGCAGTAACTTGTCAGTCAT (double strand) [Cy3-scr]”, the binding result in series [1] is “binds more weakly”.
As for “GCCGGCCCCTTTCCGCGTTA (double strand) [Cy3-cos]”, the binding result in series [2] is recorded as “binds more weakly”.

For the origin of these results see publication PMC7672466, “Biophysical analysis of Pseudomonas-phage PaP3 small terminase suggests a mechanism for sequence-specific DNA-binding by lateral interdigitation”.
